Patent US20020025510A1, “Screening methods based on superactivated alpha V beta 3 integrin” (priority 2000, published 2002)
“Also recorded” adds a separate entry of the source. At least one structure is not confirmed: it was looked up by name or label, or the drawing left a doubt.

Columns and labels:
MT1-MMP = biological target: T1, MT1-MMP (Homo sapiens, UniProt P50281); experiment: Activation of exogenous pro-MMP-2 by transfected MCF7 cells, gelatin zymography; type: cell-based; details: β3/MT-MCF7 cells, 50 μM, 10 ng/ml pro-MMP-2, overnight incubation, conditioned medium
T1 construct: expressed in transfected cells; host or cells: MCF7 breast carcinoma cells, stably transfected (pcDNA3-zeo)

β3/MT-MCF7 cells = experiment: Directional migration of cells in vitronectin-coated Transwells; type: cell-based; details: vitronectin 2 μg/ml, 48 hours

**Q.** `CNC(=O)[C@H](Cc1ccccc1)NC(=O)[C@H](CC(C)C)[C@H](CSc1cccs1)C(=O)NO` [Batimastat] was tested. Which “Inhibition of MT1-MMP-induced activation of pro-MMP-2” value (MT1-MMP) did it give?
**A.** The value was “completely inhibits; also recorded: complete inhibition”.

**Q.** What about the “Effect on migration of β3/MT-MCF7 cells” value (β3/MT-MCF7 cells; added directly to Transwells (100 μM) without pre-incubation) of the same compound?
**A.** The value was “did not significantly affect”.

**Q.** And the “Effect on migration of β3/MT-MCF7 cells” value (β3/MT-MCF7 cells; cells pre-incubated 18 hours with 50 μM, then migration in presence of inhibitor (100 μM))?
**A.** The value was “strongly inhibited”.
